Results are given in words; binding and its absence hold for the method and conditions named. In cells and extracts the contact can be indirect. Here binding means that the protein was enriched with, or labelled near, the bait; the list need not be complete. Sequences can lack the tags named with a protein.
Molecular target: T1, GST-tagged yeast S3 expressed in yeast (S. cerevisiae) (UniProt P05750)
T1 sequence: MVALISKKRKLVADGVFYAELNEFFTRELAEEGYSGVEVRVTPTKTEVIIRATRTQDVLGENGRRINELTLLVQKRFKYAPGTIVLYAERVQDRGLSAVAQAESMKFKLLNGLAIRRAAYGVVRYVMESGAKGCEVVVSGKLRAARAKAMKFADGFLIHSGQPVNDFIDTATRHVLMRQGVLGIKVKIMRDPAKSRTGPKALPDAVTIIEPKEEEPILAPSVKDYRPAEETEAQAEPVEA
Assay: affinity purification with mass spectrometry; GST-S3 and untagged Sfm1 co-expressed in yeast YPH499; GST-S3 complex purified on glutathione sepharose beads, chymotrypsin digest, LC-MS

B1: Yar1 (found with GST-S3 in yeast) (protein, UniProt P46683 1-200)
chain: MGLHSEPLDQEDQDTIILDARAGDLDSLKDIFTTLVSPELLSTCKESESDSTALHMAAANGHIETVRYILETVSRANSAEDLKAFVNEVNKTGNTALHWASLNGKLDVVKLLCDEYEADPFIRNKFGHDAIFEAENSGKEEVETYFLKKYDVEPEDDEEDTQTEGKNSVQITKGTEIEQVTKEATEALREETEKLNINKD
- binding: binds

From publication PMC4860837, “Structural basis for Sfm1 functioning as a protein arginine methyltransferase” (Cell Discovery, 2015)
